# Data reported in patent publication US20060172368A1, “CGT1 as an antifungal target” (priority 2002, published 2006).
# At least one compound was matched to its structure with a doubt left.
# Columns and labels:
# [1] = tested on: C albicans strain modified to include a tetracycline-regulatable CGT1-expression system; assay: Solid phase growth of C. albicans strain with tetracycline-regulatable CGT1 expression; format: cell-based; conditions: 20 μg/ml doxycycline, SC-U plates plus 2% agar, 3 days at 30° C.
# [2] = tested on: tetracycline-regulatable CGT1-expression system C. albicans strain; assay: Liquid phase growth of C. albicans strain with tetracycline-regulatable CGT1 expression; format: cell-based; conditions: YEPD medium, doxycycline 0.05, 0.1, 0.2, 2.0 and 20 μg/ml, shaking 16 h at 37° C.
# [3] = tested on: conditional mutants of C. albicans strains, CGT1 gene under the control of a tetracycline repressible promoter; assay: Murine model of systemic infection with C albicans conditional mutants; format: in vivo, BALB/c mice
smiles,measurement,setting,value
C[C@H]1c2cccc(O)c2C(=O)C2=C(O)[C@]3(O)C(=O)C(C(N)=O)=C(O)[C@@H](N(C)C)[C@@H]3[C@@H](O)[C@@H]21 [doxycycline],colony formation (growth scored on solid medium),[1],Few colonies
same,growth in liquid medium (optical density),[2],significant reduction in growth
same,survival rate of infected mice,"[3]; 2 mg/ml doxycycline in 5% sucrose as drinking water, 1×10^6 CFU/mouse i.v., followed over 28 days",unable to impact on the survival rate of the mice
same,kidney counts (colony forming unit counts per gram of kidney tissue),"[3]; +DOX group compared to control group (−DOX), 2 mg/ml in drinking water",significantly reduced
same,body weight over the course of the study,"[3]; +DOX group, 2 mg/ml in drinking water",maintained their weight
